For the test, the target named is CLDN18.2~VLP (virus-like particle) expressing the claudin18.2 protein, CSB-MP005498HU (A5), CUSABIO (UniProt P56856). The test is described as follows: indirect ELISA on coated CLDN18.2 VLP. (In general: In an ELISA, binding on a coated surface is turned into a signal by an enzyme label.)

By UniProt entry, the sequences of proteins in these tests, tags left out. Where a name states a change or a piece, a line headed by the entry shows the natural chain unless it says otherwise. Chains listed by the source or under a name are the forms on record and can include a tag or linker.
CLDN18.2~VLP (virus-like particle) expressing the claudin18.2 protein, CSB-MP005498HU (A5), CUSABIO (P56856, form named): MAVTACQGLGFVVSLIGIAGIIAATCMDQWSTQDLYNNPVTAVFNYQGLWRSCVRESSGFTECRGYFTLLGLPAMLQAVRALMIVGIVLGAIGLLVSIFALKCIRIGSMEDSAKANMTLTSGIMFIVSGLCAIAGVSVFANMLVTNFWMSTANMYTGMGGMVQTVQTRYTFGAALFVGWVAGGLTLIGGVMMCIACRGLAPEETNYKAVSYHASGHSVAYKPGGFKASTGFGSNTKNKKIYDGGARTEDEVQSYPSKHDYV

Results are given in words; binding and its absence hold for the method and conditions named. Some binding calls cover weakened binding; strength is not graded here.

B1: Antibody-A (anti-claudin18.2 antibody) (antibody, human IgG1, kappa, V domains shown)
VH: QVQLVESGGGVVQPGRSLRLSCAASGFSLTTYGVHWVRQAPGKGLEWVAVIWAGGSTNYNSALMSRFTISRDNSKNTLYLQMNSLRAEDTAVYYCARAAYYGNGLDYWGQGTMVTVSS
VL: DIVMTQSPLSLPVTPGEPASISCKSSQTLLNSGNQKNYLTWYLQKPGQSPQLLIYWASTGESGVPDRFSGSGSGTDFTLKISRVEAEDVGVYYCQNAYFYPFTFGGGTKVEIKR
Regarding B1, the binding entry is listed as “binds”.

The values are drawn from US20260151501A1, “ANTIBODY-DRUG CONJUGATE COMPRISING ANTI-CLAUDIN-18.2 ANTIBODY, AND THERAPEUTIC USE THEREOF FOR CANCER” (ABTIS CO., LTD., priority 2022, published 2026).
